Experimental data from PMC4345279.
Where two headings read alike, the source gives them in different places. These are yes or no findings as the source states them, for the method shown. Binding seen in cells or lysates may run through a third protein. Here binding means that the protein was enriched with, or labelled near, the bait; the list need not be complete.

Amino acid sequences for entries named in this document (tags omitted). A change or cut given only in a name is not applied to a line headed by its entry. Chains listed by the source or under a name are the forms on record and can include a tag or linker.
UniProt Q9VCG6: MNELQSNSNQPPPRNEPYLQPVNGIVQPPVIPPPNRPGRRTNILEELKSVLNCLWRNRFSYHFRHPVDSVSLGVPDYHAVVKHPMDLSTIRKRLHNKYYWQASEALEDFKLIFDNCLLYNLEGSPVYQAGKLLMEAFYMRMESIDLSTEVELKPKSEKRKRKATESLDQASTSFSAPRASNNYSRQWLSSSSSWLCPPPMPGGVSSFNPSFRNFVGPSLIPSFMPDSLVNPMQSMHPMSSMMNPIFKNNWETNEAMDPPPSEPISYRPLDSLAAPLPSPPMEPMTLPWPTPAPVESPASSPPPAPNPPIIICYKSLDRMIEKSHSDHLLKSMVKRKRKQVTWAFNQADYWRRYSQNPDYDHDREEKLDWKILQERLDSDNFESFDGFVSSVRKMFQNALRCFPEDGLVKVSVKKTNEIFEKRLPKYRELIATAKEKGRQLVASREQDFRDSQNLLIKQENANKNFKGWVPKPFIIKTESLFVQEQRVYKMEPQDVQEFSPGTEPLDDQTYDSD
UniProt O97125: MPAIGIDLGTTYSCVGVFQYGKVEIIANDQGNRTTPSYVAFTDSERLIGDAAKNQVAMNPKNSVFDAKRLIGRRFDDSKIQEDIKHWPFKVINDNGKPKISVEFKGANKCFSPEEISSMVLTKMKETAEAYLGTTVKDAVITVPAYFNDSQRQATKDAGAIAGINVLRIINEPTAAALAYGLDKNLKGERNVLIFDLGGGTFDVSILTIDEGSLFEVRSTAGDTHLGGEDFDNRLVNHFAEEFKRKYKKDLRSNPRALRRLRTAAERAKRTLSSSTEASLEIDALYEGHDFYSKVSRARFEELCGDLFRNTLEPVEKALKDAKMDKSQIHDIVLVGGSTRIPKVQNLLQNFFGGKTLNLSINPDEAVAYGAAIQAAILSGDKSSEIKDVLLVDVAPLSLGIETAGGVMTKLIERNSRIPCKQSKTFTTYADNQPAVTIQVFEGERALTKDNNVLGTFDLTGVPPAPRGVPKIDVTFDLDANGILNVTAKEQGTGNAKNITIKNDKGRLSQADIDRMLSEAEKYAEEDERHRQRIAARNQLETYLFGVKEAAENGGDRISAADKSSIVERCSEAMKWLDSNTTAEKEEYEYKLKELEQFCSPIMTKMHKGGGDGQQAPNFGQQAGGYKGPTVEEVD
myosin heavy chain (P05661, form named): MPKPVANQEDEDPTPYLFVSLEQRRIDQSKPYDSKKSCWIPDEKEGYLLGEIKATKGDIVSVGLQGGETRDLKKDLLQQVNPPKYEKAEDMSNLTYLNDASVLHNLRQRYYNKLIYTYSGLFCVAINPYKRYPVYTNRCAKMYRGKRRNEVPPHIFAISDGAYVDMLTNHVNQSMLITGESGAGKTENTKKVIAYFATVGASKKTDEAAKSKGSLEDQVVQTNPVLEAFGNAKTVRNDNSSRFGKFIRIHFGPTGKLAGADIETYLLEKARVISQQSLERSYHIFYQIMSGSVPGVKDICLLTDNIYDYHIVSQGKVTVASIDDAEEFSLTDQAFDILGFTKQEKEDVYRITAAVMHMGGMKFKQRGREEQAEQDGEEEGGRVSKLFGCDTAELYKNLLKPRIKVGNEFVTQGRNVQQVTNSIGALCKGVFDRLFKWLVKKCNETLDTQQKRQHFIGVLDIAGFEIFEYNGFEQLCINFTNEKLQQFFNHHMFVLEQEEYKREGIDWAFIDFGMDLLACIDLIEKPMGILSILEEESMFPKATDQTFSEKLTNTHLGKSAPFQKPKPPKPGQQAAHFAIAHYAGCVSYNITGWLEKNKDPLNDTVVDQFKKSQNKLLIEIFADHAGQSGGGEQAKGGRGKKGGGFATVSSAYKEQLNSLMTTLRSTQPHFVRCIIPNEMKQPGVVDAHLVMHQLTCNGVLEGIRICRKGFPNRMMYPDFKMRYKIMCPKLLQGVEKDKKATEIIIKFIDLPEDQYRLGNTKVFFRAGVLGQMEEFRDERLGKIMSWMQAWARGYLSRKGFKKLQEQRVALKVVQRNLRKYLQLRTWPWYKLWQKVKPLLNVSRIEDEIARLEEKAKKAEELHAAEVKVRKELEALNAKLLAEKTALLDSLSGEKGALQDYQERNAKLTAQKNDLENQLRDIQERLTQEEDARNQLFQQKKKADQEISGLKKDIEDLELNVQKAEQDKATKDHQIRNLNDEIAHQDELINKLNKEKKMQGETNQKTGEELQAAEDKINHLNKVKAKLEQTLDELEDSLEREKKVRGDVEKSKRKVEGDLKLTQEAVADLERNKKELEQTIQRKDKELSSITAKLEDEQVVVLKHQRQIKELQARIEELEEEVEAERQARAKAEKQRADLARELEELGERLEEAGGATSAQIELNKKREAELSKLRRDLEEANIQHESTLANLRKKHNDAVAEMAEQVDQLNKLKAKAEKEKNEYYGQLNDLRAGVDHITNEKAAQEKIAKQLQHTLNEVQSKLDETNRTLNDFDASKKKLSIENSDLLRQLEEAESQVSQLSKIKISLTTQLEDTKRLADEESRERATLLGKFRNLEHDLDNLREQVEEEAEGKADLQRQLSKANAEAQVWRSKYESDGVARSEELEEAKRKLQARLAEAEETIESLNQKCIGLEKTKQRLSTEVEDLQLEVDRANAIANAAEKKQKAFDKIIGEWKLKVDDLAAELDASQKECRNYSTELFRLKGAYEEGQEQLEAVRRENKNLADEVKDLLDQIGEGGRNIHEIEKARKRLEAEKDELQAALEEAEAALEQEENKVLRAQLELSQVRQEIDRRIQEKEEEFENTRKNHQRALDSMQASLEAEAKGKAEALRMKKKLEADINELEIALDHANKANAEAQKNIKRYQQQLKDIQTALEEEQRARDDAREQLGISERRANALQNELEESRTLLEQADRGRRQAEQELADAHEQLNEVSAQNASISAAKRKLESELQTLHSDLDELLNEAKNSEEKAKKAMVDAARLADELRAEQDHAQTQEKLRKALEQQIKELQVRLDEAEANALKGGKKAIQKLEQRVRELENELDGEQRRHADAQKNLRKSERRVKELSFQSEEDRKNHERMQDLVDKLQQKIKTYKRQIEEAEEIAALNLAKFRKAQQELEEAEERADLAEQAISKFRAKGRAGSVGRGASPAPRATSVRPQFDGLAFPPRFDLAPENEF
UniProt P21187: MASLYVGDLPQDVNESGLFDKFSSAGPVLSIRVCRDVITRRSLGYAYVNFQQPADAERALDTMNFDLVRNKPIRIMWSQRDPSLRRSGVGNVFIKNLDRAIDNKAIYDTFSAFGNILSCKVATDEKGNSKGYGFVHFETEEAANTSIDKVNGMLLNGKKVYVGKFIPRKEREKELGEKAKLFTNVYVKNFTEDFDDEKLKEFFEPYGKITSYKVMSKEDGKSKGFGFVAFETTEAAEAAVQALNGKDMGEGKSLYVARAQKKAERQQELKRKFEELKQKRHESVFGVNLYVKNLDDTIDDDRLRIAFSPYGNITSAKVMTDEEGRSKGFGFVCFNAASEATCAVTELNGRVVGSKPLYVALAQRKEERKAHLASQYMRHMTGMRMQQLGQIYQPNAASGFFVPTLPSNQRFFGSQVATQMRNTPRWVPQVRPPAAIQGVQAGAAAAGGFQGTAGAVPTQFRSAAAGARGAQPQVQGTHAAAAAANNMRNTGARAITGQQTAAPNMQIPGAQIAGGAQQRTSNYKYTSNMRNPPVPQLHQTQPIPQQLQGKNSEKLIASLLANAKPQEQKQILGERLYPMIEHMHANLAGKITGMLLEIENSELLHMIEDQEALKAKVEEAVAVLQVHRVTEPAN
zipper (Q99323, form named): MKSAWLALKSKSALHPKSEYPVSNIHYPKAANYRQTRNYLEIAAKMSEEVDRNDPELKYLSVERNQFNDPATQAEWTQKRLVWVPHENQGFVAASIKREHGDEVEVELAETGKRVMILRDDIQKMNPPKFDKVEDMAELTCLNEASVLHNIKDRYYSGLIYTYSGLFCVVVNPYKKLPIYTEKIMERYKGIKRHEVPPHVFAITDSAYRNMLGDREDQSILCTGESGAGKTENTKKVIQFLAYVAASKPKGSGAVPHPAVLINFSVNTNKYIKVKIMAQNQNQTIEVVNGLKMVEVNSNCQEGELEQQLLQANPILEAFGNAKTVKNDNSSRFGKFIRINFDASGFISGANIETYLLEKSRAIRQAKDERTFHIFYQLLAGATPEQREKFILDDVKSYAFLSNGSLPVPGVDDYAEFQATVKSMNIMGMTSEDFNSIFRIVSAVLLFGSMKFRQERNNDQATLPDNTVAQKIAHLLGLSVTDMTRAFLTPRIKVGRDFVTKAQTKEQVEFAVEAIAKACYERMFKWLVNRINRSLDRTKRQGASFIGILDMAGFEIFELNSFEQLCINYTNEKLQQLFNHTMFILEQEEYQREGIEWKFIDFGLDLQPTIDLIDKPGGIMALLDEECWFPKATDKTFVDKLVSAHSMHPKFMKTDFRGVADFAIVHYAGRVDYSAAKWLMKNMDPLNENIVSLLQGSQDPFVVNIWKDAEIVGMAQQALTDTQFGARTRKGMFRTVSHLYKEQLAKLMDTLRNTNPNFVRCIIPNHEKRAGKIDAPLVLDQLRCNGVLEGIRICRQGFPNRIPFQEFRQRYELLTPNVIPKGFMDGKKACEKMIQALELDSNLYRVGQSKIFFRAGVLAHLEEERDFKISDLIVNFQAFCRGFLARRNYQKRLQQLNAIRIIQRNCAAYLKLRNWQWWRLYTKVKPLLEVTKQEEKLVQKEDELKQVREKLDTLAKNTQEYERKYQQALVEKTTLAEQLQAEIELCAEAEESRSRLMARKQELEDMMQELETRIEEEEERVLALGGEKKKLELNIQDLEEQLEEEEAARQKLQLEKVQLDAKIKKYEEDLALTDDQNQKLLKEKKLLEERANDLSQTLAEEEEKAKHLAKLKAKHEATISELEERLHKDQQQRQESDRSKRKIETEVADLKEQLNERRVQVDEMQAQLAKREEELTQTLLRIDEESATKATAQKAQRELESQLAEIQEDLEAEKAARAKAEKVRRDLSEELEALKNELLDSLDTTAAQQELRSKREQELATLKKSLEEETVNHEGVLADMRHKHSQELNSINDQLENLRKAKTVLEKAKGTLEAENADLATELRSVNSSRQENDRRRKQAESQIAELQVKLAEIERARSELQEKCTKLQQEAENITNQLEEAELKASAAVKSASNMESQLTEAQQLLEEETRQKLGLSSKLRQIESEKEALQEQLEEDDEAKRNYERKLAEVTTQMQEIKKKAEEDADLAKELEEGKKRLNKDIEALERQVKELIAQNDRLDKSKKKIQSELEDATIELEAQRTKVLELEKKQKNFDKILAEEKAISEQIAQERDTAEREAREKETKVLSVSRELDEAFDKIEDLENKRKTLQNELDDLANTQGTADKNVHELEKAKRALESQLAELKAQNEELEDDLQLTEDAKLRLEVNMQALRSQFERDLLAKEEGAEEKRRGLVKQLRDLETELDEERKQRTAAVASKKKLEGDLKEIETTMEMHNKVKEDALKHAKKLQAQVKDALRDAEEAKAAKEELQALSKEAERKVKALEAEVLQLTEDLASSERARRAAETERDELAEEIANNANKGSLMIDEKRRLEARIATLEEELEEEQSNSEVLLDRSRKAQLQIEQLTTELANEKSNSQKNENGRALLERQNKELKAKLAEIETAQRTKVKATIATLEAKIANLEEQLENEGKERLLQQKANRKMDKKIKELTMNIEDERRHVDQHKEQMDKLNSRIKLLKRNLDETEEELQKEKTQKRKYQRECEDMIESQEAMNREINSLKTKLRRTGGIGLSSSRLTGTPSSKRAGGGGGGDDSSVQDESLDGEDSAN

What was measured:
[1] = molecular target: tBRD-1 (testis-specifically expressed bromodomain-containing protein-1), endogenous (Drosophila (endogenous in testes)) (UniProt Q9VCG6); test: affinity purification with mass spectrometry; anti-tBRD-1 antibody cross-linked to Protein A Dynabeads added to wild-type crude testicular lysates (control rabbit IgG), 6 h at 4°C, washed with 1×TNE and BC100, eluted with 0.1 M glycin-HCl pH 2.0; separated by electrophoresis, silver stained, in-gel digestion, LC-MS
[2] = molecular target: tBRD-1 (testis-specifically expressed bromodomain-containing protein-1), endogenous (Drosophila (endogenous in testes)) (UniProt Q9VCG6); test: as above; remark: listed apart in the source

binding [1]	binding [2]	Molecule
binds		heat shock protein 68 (from UniProt O97125 1-635)
binds		myosin heavy chain (from UniProt P05661 1-1962)
binds		poly(A) binding protein (from UniProt P21187 1-634)
binds		zipper (from UniProt Q99323 1-2056)
	binds	ribonuclear protein at 97D (protein, UniProt Q02926 1-471) MVKDEPLSDESADVIVLADREEDDICELEHLRKLFIGGLAPYTTEENLKLFYGQWGKVVDVVVMRDAATKRSRGFGFITYTKSLMVDRAQENRPHIIDGKTVEAKRALPRPERESRETNISVKKLFVGGLKDNHDEECLREYFLQFGNVVSVKLLTDKTTGKRRGFAFVEFDDYDAVDKAILKKQHAIKYVHVDVKKSIYNLDKKEKQQPGGLANAIKPSLNQQQQQQGGGQQPPNGNMQAPSFRPPVPPQQAMGPYQQQPPPAPMSAPPPNFNYWGPPPPAMPPYYQQPPPQQMNGWGPYPPPQQNGWNAPPPPPPGAQQWHANQWGCPPPVQQVPPVGAVPPPMGHNGPPPTAPGNWNMPPPVPGAAPPSHQQQSSQQPTPQPNFGTGYQQNYGGGPSKHNNMNANRMNPYSAGPPNSYHTPQPPAYTGYNAGPLPPNGSVPPPTGAKAVGVSNGSVATGGSANSKYRR
	binds	paramyosin (protein, UniProt P35415 1-879) MSSSQAVRSSKYSYRATSTGPGTADVNIEYIQDLSSLSRLEDKIRLLQDDLEVERELRQRIEREKADLSVQVIQMSERLEEAEGGAEHQFEANRKRDAELLKLRKLLEDVHLESEETTLLLKKKHNEIITDFQEQVEILTKNKARAEKDKAKFQTEVYELLSQIESYNKEKIVSEKHISKLEVSISELNVKIEELNRTVIDISSHRSRLSQENIELTKDVQDLKVQLDTVSFSKSQVISQLEDARRRLEDEDRRRSLLESSLHQVEIELDSVRNQLEEESEARIDLERQLVKANADATSWQNKWNSEVAARAEEVEEIRRKYQVRITELEEHIESLIVKVNNLEKMKTRLASEVEVLIIDLEKSNNSCRELTKSVNTLEKHNVELKSRLDETIILYETSQRDLKNKHADLVRTVHELDKVKDNNNQLTRENKKLGDDLHEAKGAINELNRRLHELELELRRLENERDELTAAYKEAEAGRKAEEQRGQRLAADFNQYRHDAERRLAEKDEEIEAIRKQTSIEIEQLNARVIEAETRLKTEVTRIKKKLQIQITELEMSLDVANKTNIDLQKVIKKQSLQLTELQAHYEDVQRQLQATLDQYAVAQRRLAGLNGELEEVRSHLDSANRAKRTVELQYEEAASRINELTTANVSLVSIKSKLEQELSVVASDYEEVSKELRISDERYQKVQVELKHVVEQVHEEQERIVKLETIKKSLEVEVKNLSIRLEEVELNAVAGSKRIISKLEARIRDLELELEEEKRRHAETIKILRKKERTVKEVLVQCEEDQKNLILLQDALDKSTAKINIYRRQLSEQEGVSQQTTTRVRRFQRELEAAEDRADTAESSLNIIRAKHRTFVTTSTVPGSQVYIQETTRTITE
